# Measurements from the supplement of paper PMC8728848.
# Some of the results follow.
# B1: SspB (Streptococcus gordonii), P16952 (protein)
# chain: MKNKKEVYGFRKSKVAKTLCGAVLGTALIAFADKAVFADEVTETTSTSTVEVATTGNPATNLPEAQGEMSQVAKESQAKAGSKESALPVEVSSADLDKAVADAKSAGVKVVQDETKDKGTATTATDNAQKQDEIKSDYAKQAEEIKTTTEAYKKEVAAHQAETDKINAENKAADDKYQKDLKSHQEEVEKINTANATAKAEYEAKLAQYQKDLATVKKANEDSQQDYQNKLSAYQTELARVQKANAEAKEAYEKAVKENTAKNEALKVENEAIKQRNETAKATYEAAMKQYEADLAAIKKANEDNDADYQAKLAAYQTELARVQKANAEAKEAYDKAVKENTAKNTAIQAENEAIKQRNETAKATYDAAVKKYEADLAAVKQANATNEADYQAKLAAYQTELARVQKANADAKATYEKAVEDNKAKNAAIKAENEEIKQRNAVAKTDYEAKLAKYEADLAKYKKEFAAYTAALAEAESKKKQDGYLSEPRSQSLNFKSEPNAIRTIDSSVHQYGQQELDALVKSWGISPTNPDRKKSRAYSYFNAINSNNTYAKLVLEKDKPVDVTYTGLKNSSFNGKKISKVVYTYTLKETGFNDGTKMTMFASSDPTVTAWYNDYFTSTNINVKVKFYDEEGQLMNLTGGLVNFSSLNRGNGSGAIDKDAIESVRNFNGRYIPISGSSIKIHENNSAYADSSNAEKSLGARWNTSEWDTTSSPNNWYGAIVGEITQSEISFNMASSKSGNIWFAFNSNINAIGVPTKPVAPTAPTQPMYETEKPLEPAPVAPSYENEPTPPVKTPDQPEPSKPEEPTYETEKPLEPAPVAPSYENEPTPPVKTPDQPEPSKPEEPNYETEKPLEPAPVAPSYENEPTPPVKIPDQPEPSKPEEPTYDPLPTPPLAPTPKQLPTPPVVPTVHFHYSSLLAQPQINKEIKNEDGVDIDRTLVAKQSIVKFELKTEALTAGRPKTTSFVLVDPLPTGYKFDLDATKAASTGFDTTYDEASHTVTFKATDETLATYNADLTKPVETLHPTVVGRVLNDGATYTNNFTLTVNDAYGIKSNVVRVTTPGKPNDPDNPNNNYIKPTKVNKNKEGLNIDGKEVLAGSTNYYELTWDLDQYKGDKSSKEAIQNGFYYVDDYPEEALDVRPDLVKVADEKGNQVSGVSVQQYDSLEAAPKKVQDLLKKANITVKGAFQLFSADNPEEFYKQYVATGTSLVITDPMTVKSEFGKTGGKYENKAYQIDFGNGYATEVVVNNVPKITPKKDVTVSLDPTSENLDGQTVQLYQTFNYRLIGGLIPQNHSEELEDYSFVDDYDQAGDQYTGNYKTFSSLNLTMKDGSVIKAGTDLTSQTTAETDATNGIVTVRFKEDFLQKISLDSPFQAETYLQMRRIAIGTFENTYVNTVNKVAYASNTVRTTTPIPRTPDKPTPIPTPKPKDPDKPETPKEPKVPSPKVEDPSAPIPVSVGKELTTLPKTGTNDATYMPYLGLAALVGFLGLGLAKRKED
# What was measured:
# Test in all cases: glycan array binding signal (z-score within array); higher = stronger binding
# Details in all cases: glycan notation: IUPAC condensed, linker removed
# [1] = biological target: GlcNAc6S(b1-3)Gal(b1-4)GlcNAc
# Summary of the method: (§1)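 Negative Z-scores can be read as non-binding. The Z-score is calculated within each array and then averaged across arrays of one protein sequence at different concentrations or buffers and across linkers. Arrays, 3228 in all, were curated from the Consortium for Functional Glycomics database and kept only where the protein sequence was available.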
# Kdn(a2-3)Gal(b1-3)GalNAc = biological target: Kdn(a2-3)Gal(b1-3)GalNAc
# Summary of the method: as §1
# Kdn(a2-3)Gal(b1-3)GlcNAc = biological target: Kdn(a2-3)Gal(b1-3)GlcNAc
# Summary of the method: as §1
# Kdn(a2-3)Gal(b1-4)Glc = biological target: Kdn(a2-3)Gal(b1-4)Glc
# Summary of the method: as §1
# Kdn(a2-3)Gal(b1-4)GlcNAc = biological target: Kdn(a2-3)Gal(b1-4)GlcNAc
# Summary of the method: as §1
# [2] = biological target: Kdn(a2-3)Gal(b1-4)[Fuc(a1-3)]GlcNAc
# Summary of the method: as §1
# Kdn(a2-6)Gal(b1-4)GlcNAc = biological target: Kdn(a2-6)Gal(b1-4)GlcNAc
# Summary of the method: as §1
# [3] = biological target: Man(a1-2)Man(a1-2)Man(a1-3)Man
# Summary of the method: as §1
# [4] = biological target: Man(a1-2)Man(a1-2)Man(a1-6)[Man(a1-3)]Man
# Summary of the method: as §1
# Man(a1-2)Man(a1-3)Man = biological target: Man(a1-2)Man(a1-3)Man
# Summary of the method: as §1
# [5] = biological target: Man(a1-2)Man(a1-3)[Man(a1-2)Man(a1-6)]Man
# Summary of the method: as §1
# [6] = biological target: Man(a1-2)Man(a1-3)[Man(a1-2)Man(a1-6)]Man(a1-6)[Man(a1-2)Man(a1-2)Man(a1-3)]Man
# Summary of the method: as §1
# [7] = biological target: Man(a1-2)Man(a1-3)[Man(a1-2)Man(a1-6)]Man(a1-6)[Man(a1-2)Man(a1-2)Man(a1-3)]Man(b1-4)GlcNAc(b1-4)GlcNAc
# Summary of the method: as §1
# [8] = biological target: Man(a1-2)Man(a1-3)[Man(a1-6)]Man(a1-6)[Man(a1-2)Man(a1-3)]Man(b1-4)GlcNAc(b1-4)GlcNAc
# Summary of the method: as §1
# [9] = biological target: Man(a1-2)Man(a1-6)[Man(a1-3)]Man(a1-6)[Man(a1-2)Man(a1-2)Man(a1-3)]Man
# Summary of the method: as §1
# [10] = biological target: Man(a1-2)Man(a1-6)[Man(a1-3)]Man(a1-6)[Man(a1-2)Man(a1-2)Man(a1-3)]Man(b1-4)GlcNAc(b1-4)GlcNAc
# Summary of the method: as §1
# Man(a1-3)[Man(a1-6)]Man = biological target: Man(a1-3)[Man(a1-6)]Man
# Summary of the method: as §1
# [11] = biological target: Man(a1-3)[Man(a1-6)]Man(a1-6)[Man(a1-2)Man(a1-3)]Man(b1-4)GlcNAc(b1-4)GlcNAc
# Summary of the method: as §1
# [12] = biological target: Man(a1-3)[Man(a1-6)]Man(a1-6)[Man(a1-3)]Man
# Summary of the method: as §1
# [13] = biological target: Man(a1-3)[Man(a1-6)]Man(a1-6)[Man(a1-3)]Man(b1-4)GlcNAc(b1-4)GlcNAc
# Summary of the method: as §1
# [14] = biological target: Man(a1-3)[Man(a1-6)]Man(b1-4)GlcNAc(b1-4)GlcNAc
# Summary of the method: as §1
# Man(a1-6)Man = biological target: Man(a1-6)Man
# Summary of the method: as §1
# Man(b1-4)GlcNAc = biological target: Man(b1-4)GlcNAc
# Summary of the method: as §1
# Neu5Ac(a2-3)Gal = biological target: Neu5Ac(a2-3)Gal
# Summary of the method: as §1
# [15] = biological target: Neu5Ac(a2-3)Gal(b1-3)GalNAc
# Summary of the method: as §1
# [16] = biological target: Neu5Ac(a2-3)Gal(b1-3)GalNAc(b1-3)Gal(a1-4)Gal(b1-4)Glc
# Summary of the method: as §1
# [17] = biological target: Neu5Ac(a2-3)Gal(b1-3)GalNAc(b1-4)[Neu5Ac(a2-3)]Gal(b1-4)Glc
# Summary of the method: as §1
# [18] = biological target: Neu5Ac(a2-3)Gal(b1-3)GalNAc6S
# Summary of the method: as §1
# [19] = biological target: Neu5Ac(a2-3)Gal(b1-3)GlcNAc
# Summary of the method: as §1
# [20] = biological target: Neu5Ac(a2-3)Gal(b1-3)GlcNAc(b1-2)Man(a1-3)[Neu5Ac(a2-3)Gal(b1-3)GlcNAc(b1-2)Man(a1-6)]Man(b1-4)GlcNAc(b1-4)GlcNAc
# Summary of the method: as §1
# [21] = biological target: Neu5Ac(a2-3)Gal(b1-3)GlcNAc(b1-3)Gal(b1-3)GlcNAc
# Summary of the method: as §1
# [22] = biological target: Neu5Ac(a2-3)Gal(b1-3)GlcNAc(b1-3)Gal(b1-4)GlcNAc
# Summary of the method: as §1
# [23] = biological target: Neu5Ac(a2-3)Gal(b1-3)GlcNAc(b1-3)GalNAc
# Summary of the method: as §1
# [24] = biological target: Neu5Ac(a2-3)Gal(b1-3)GlcNAc6S
# Summary of the method: as §1
# [25] = biological target: Neu5Ac(a2-3)Gal(b1-3)[Fuc(a1-4)]GlcNAc
# Summary of the method: as §1
# [26] = biological target: Neu5Ac(a2-3)Gal(b1-3)[Fuc(a1-4)]GlcNAc(b1-3)Gal(b1-3)[Fuc(a1-4)]GlcNAc
# Summary of the method: as §1
# [27] = biological target: Neu5Ac(a2-3)Gal(b1-3)[Fuc(a1-4)]GlcNAc(b1-3)Gal(b1-4)[Fuc(a1-3)]GlcNAc
# Summary of the method: as §1
# [28] = biological target: Neu5Ac(a2-3)Gal(b1-3)[Neu5Ac(a2-3)Gal(b1-4)]GlcNAc
# Summary of the method: as §1
# [29] = biological target: Neu5Ac(a2-3)Gal(b1-3)[Neu5Ac(a2-6)]GalNAc
# Summary of the method: as §1
# Neu5Ac(a2-3)Gal(b1-4)Glc = biological target: Neu5Ac(a2-3)Gal(b1-4)Glc
# Summary of the method: as §1
# [30] = biological target: Neu5Ac(a2-3)Gal(b1-4)GlcNAc
# Summary of the method: as §1
# [31] = biological target: Neu5Ac(a2-3)Gal(b1-4)GlcNAc(b1-2)Man(a1-3)[GlcNAc(b1-2)Man(b1-4)GlcNAc(b1-2)Man(a1-6)]Man(b1-4)GlcNAc(b1-4)GlcNAc
# Summary of the method: as §1
# [32] = biological target: Neu5Ac(a2-3)Gal(b1-4)GlcNAc(b1-2)Man(a1-3)[Neu5Ac(a2-6)Gal(b1-4)GlcNAc(b1-2)Man(a1-6)]Man(b1-4)GlcNAc(b1-4)GlcNAc
# Summary of the method: as §1
# [33] = biological target: Neu5Ac(a2-3)Gal(b1-4)GlcNAc(b1-3)Gal(b1-3)GlcNAc
# Summary of the method: as §1
# [34] = biological target: Neu5Ac(a2-3)Gal(b1-4)GlcNAc(b1-3)Gal(b1-4)GlcNAc
# Summary of the method: as §1
binder,measurement,setting,value
B1,glycan array binding signal (z-score),[1],0.472
same,glycan array binding signal (z-score),Kdn(a2-3)Gal(b1-3)GalNAc,0.527
same,glycan array binding signal (z-score),Kdn(a2-3)Gal(b1-3)GlcNAc,-0.205
same,glycan array binding signal (z-score),Kdn(a2-3)Gal(b1-4)Glc,1.04
same,glycan array binding signal (z-score),Kdn(a2-3)Gal(b1-4)GlcNAc,0.115
same,glycan array binding signal (z-score),[2],-1.37
same,glycan array binding signal (z-score),Kdn(a2-6)Gal(b1-4)GlcNAc,-0.665
same,glycan array binding signal (z-score),[3],0.605
same,glycan array binding signal (z-score),[4],0.022
same,glycan array binding signal (z-score),Man(a1-2)Man(a1-3)Man,0.806
same,glycan array binding signal (z-score),[5],-0.574
same,glycan array binding signal (z-score),[6],1.48
same,glycan array binding signal (z-score),[7],-1.07
same,glycan array binding signal (z-score),[8],1.11
same,glycan array binding signal (z-score),[9],0.903
same,glycan array binding signal (z-score),[10],0.792
same,glycan array binding signal (z-score),Man(a1-3)[Man(a1-6)]Man,1.4
same,glycan array binding signal (z-score),[11],-0.43
same,glycan array binding signal (z-score),[12],-0.191
same,glycan array binding signal (z-score),[13],-0.356
same,glycan array binding signal (z-score),[14],-0.773
same,glycan array binding signal (z-score),Man(a1-6)Man,2.65
same,glycan array binding signal (z-score),Man(b1-4)GlcNAc,-0.696
same,glycan array binding signal (z-score),Neu5Ac(a2-3)Gal,-0.182
same,glycan array binding signal (z-score),[15],0.398
same,glycan array binding signal (z-score),[16],0.761
same,glycan array binding signal (z-score),[17],-0.026
same,glycan array binding signal (z-score),[18],0.579
same,glycan array binding signal (z-score),[19],-1.14
same,glycan array binding signal (z-score),[20],-0.185
same,glycan array binding signal (z-score),[21],-0.209
same,glycan array binding signal (z-score),[22],-0.057
same,glycan array binding signal (z-score),[23],0.045
same,glycan array binding signal (z-score),[24],-1.52
same,glycan array binding signal (z-score),[25],0.111
same,glycan array binding signal (z-score),[26],0.462
same,glycan array binding signal (z-score),[27],0.408
same,glycan array binding signal (z-score),[28],0.26
same,glycan array binding signal (z-score),[29],0.321
same,glycan array binding signal (z-score),Neu5Ac(a2-3)Gal(b1-4)Glc,-0.317
same,glycan array binding signal (z-score),[30],-0.756
same,glycan array binding signal (z-score),[31],0.819
same,glycan array binding signal (z-score),[32],-0.312
same,glycan array binding signal (z-score),[33],1.9
same,glycan array binding signal (z-score),[34],0.053

# Exported bar-delimited: part of the list above.
binder | measurement | setting | value
B1 | glycan array binding signal (z-score) | Kdn(a2-3)Gal(b1-4)Glc | 1.04
same | glycan array binding signal (z-score) | Kdn(a2-3)Gal(b1-4)GlcNAc | 0.115
same | glycan array binding signal (z-score) | [2] | -1.37
same | glycan array binding signal (z-score) | Kdn(a2-6)Gal(b1-4)GlcNAc | -0.665
same | glycan array binding signal (z-score) | [3] | 0.605
same | glycan array binding signal (z-score) | [4] | 0.022
same | glycan array binding signal (z-score) | Man(a1-2)Man(a1-3)Man | 0.806
same | glycan array binding signal (z-score) | [5] | -0.574
same | glycan array binding signal (z-score) | [6] | 1.48
